Test results from doi:10.1101/2025.08.20.671228.
No constants are given. Whether binding was seen depends on the method and setting.

By UniProt entry, the sequences of proteins in these tests, tags left out.
UniProt Q18B12: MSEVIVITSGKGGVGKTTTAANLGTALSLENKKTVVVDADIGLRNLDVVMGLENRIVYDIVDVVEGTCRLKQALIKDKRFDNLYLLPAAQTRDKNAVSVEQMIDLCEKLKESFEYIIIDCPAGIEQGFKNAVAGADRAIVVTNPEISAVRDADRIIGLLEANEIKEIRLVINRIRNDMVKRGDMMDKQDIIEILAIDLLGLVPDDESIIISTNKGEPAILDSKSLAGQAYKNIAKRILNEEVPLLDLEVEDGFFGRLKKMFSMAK

Target: MinD (CDR0987) fused to the T18 or T25 fragment of CyaA (Clostridioides difficile R20291) (UniProt Q18B12)
Assay: two-hybrid; bacterial two-hybrid in E. coli BTH101: N- and C-terminal fusions to the T18 and T25 fragments of CyaA, spotted on LB-agar with X-gal and 0.5 mM IPTG, 24-36 h at 30 °C

Substance: MinD (CDR0987) fused to the T18 or T25 fragment of CyaA (from UniProt Q18B12 1-265)
- binding: no binding
